Values of other authors as cited in patent publication US10058516B2, “Design, synthesis and methods of use of acyclic fleximer nucleoside analogues having anti-coronavirus activity” (priority 2015, dated 2018).
At least one structure is not confirmed: it was looked up by name or label, or the drawing left a doubt.

Tested on: SARS-CoV or MERS-CoV
Conditions: cited from earlier work

Nc1ccn([C@@H]2CS[C@H](CO)O2)c(=O)n1 [lamivudine]
activity against SARS-CoV or MERS-CoV in vitro: none of these well-known antiviral drugs exhibited any activity
